Results taken from article doi:10.1101/2025.08.12.669934 (bioRxiv, 2025).
Results are given in words; binding and its absence hold for the method and conditions named. In cells and extracts the contact can be indirect. Some entries that bind do so weakly or less than the wild type. For some of these results: Sequences can lack the tags named with a protein.

Protein sequences, listed by entry. Tags and fused reporters are not part of them. Lines headed by an entry give the natural chain unless they say otherwise; changes in a name come on top.
UniProt Q07878, whole entry: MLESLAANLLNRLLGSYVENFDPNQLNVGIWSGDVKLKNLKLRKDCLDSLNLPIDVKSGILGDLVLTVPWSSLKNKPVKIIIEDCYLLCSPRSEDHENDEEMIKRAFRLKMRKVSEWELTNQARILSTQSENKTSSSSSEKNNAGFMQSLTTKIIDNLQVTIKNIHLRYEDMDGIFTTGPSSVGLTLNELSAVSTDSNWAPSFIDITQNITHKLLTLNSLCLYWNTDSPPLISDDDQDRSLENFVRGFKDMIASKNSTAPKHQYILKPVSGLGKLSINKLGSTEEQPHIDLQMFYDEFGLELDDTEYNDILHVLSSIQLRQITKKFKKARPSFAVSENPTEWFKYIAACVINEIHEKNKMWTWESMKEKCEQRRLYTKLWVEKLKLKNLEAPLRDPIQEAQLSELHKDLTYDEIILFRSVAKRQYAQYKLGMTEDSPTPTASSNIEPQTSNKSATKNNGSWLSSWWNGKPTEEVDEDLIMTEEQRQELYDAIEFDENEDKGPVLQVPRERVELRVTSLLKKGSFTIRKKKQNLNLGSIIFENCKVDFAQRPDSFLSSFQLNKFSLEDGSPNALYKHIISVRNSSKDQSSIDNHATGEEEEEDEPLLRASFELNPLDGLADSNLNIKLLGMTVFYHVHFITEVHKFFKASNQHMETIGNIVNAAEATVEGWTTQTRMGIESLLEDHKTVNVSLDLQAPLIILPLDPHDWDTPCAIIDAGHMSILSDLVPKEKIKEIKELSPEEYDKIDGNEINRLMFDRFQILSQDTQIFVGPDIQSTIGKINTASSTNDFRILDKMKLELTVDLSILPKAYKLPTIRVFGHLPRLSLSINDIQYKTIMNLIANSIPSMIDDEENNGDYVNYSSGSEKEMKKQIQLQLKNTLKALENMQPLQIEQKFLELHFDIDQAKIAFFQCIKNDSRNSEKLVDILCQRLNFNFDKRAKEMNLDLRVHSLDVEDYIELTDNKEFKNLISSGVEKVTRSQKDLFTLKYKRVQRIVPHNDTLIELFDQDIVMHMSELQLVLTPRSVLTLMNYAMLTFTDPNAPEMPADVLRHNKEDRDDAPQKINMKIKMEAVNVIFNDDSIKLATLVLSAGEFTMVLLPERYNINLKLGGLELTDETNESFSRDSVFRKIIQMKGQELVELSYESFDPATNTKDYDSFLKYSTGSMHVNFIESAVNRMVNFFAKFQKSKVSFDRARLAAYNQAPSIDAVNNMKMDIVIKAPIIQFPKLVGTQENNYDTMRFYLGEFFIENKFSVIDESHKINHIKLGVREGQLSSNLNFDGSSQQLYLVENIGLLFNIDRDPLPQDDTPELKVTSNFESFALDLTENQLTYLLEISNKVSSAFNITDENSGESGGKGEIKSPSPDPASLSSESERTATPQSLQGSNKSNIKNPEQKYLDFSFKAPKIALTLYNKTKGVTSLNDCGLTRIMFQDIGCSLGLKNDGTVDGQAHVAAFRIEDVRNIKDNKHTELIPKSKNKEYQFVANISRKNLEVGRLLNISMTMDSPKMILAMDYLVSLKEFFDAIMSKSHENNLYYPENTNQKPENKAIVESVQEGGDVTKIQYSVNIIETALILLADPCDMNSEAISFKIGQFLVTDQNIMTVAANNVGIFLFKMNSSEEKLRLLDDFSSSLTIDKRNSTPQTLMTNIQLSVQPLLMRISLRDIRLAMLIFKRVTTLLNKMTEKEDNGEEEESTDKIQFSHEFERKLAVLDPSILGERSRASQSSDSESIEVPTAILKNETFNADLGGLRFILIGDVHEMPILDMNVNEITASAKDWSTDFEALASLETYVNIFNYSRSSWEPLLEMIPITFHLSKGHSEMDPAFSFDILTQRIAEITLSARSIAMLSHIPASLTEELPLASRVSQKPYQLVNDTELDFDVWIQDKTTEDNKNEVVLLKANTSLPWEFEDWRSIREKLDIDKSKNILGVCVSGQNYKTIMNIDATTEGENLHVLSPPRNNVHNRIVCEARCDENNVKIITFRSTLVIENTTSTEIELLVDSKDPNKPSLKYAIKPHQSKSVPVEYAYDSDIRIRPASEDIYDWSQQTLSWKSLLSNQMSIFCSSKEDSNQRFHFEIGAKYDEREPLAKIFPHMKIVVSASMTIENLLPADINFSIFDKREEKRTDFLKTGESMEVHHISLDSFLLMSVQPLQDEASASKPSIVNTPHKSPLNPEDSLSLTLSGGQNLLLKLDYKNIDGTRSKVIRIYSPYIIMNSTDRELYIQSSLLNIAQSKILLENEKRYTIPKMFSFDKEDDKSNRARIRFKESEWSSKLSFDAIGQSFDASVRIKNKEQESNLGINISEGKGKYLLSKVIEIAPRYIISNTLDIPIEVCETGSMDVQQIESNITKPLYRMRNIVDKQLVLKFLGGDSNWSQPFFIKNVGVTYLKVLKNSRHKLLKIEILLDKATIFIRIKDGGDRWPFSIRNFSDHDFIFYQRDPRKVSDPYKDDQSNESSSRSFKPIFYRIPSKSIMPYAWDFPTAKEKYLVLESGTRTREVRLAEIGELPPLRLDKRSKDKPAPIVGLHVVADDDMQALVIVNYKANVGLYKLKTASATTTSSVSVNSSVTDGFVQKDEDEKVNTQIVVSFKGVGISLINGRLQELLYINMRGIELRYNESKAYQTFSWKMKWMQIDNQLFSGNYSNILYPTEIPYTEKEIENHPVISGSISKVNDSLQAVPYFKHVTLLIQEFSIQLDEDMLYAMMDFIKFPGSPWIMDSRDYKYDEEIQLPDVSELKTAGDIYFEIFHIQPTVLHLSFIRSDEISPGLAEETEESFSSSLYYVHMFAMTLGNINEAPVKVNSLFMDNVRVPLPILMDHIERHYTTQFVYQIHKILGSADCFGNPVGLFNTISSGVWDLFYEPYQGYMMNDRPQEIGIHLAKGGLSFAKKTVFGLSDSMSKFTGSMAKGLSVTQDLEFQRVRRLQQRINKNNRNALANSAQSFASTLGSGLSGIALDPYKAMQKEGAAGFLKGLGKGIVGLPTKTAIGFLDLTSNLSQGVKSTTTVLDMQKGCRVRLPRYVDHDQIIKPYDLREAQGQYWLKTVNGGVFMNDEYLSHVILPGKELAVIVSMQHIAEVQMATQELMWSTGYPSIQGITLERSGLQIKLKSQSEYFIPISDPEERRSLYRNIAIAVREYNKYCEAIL

Legend:
Experiment in all cases: co-IP
Vps13^GFP (wild type) = Vps13^GFP (wild type) (S. cerevisiae, UniProt Q07878 1-3144)
[1] = target: Vps13 H^2397A ^GFP (S. cerevisiae) (UniProt Q07878)
[2] = target: Vps13 E^2491A GT^2493-4A T^2496A ^GFP (S. cerevisiae) (UniProt Q07878)

Binder | binding (Vps13^GFP (wild type)) | binding [1] | binding [2]
Ypt35-3HA (natural protein, S. cerevisiae, UniProt P38815 1-214, looked up) MSDKISFLPPEPIQLLDEDSTEPELDIDSQQENEGPISASNSNDSTSHSNDCGATITRTRPRRSSSINANFSFQKAHVSDCTIVNGDHGTKFAVWRITVFLEPNLKAFAAKRESYKIQTYKRYSDFVRLRENLLTRIKTAKPEKLNCLQIPHLPPSVQWYSSWKYQEVNLNKDWLAKRQRGLEYFLNHIILNSSLVEMTKDILIQFLEPSKRVA | binds | binds | –
Spo71-HA (protein, UniProt Q03868 1-1245) MDSIVNVVEDDVKYAQRVTSFSSPQNANVKVFTIPRHSFTAFRLSYVSPTELSACSQVTLLGGIPKQWYADQNNQVWKLLTKISLRKVRKQSDMLRRYGYGTIYKKRVGKIPTALYLRKHFTWSYEDNTSIHNGHRLKEAEMEMKRTRSSPVQKSEYKLSLPRRCRSSSDQNFMRQELLKEKKSELSRNNSLPLIDTAQAVDIHPVLHEEDQENTNKRNKSLLSNLKRKDLGESKSISRKDYSHFDRIPSPSSARSVGETDFNYNREPSEDTLRYPDSIIEVTNRTSPAPNSILSRSGQFVNSNDLSDGFSTSNTINNVGLNANEKIFFNALQSMEKENLMLWKTSQKYGTYLDERRKSADAFQKRERGSCVDIGKLHSSHLPFINILPPWPTELTEEERIIHDRLASKHSHHIRKHVHNARNKTSCKIKDSVGTFLGMTNSLTNKATVKKRTGQILKKEKMLVMVKEAIQNKVPLPNFSENECFDTRVSERWKEYIVIARSTGRFDPPILLQFYRHRHIPEIEDISSIATKYHRNPLDFFLSRNCIVKFYSSLDKTISIQKPDKRLGGFIDESIEKKDELKHYSPIKIFILRCSSIRSSGRWYKFLLESLDRQLFTPAINLKIPLTEISIKINLNEIIFQKLIDLGKQEKDRLKICFLQRGYKIFQHPILRYFTVAILEKLKLAHYDYLIRKWDTENPVLGCALKRYDRLEWIPCDEDSLVTGIFAFCQSHLIQYRPIANRLRETKSLEGKCLKEPTPIEGFLIRLTDKYGSARTNFGKYSISTAYFFTCENLLFSMKAYRANPPLPIDSMIDDTSTEIEKEEIWKQWKKIPEVYEQQPYPLDTNDHIEWMNCQTTQSEYDSRDFYAFHCFHRRIDQILKTDNVIDLTEVKDIYQGTRTDYEADKIKYGVYKEASEIFWHRNYEIDDVSRSVINIETSNGLLLKLLATSATVAEEWVIKLKQMISYWKNKQREDTERLLKIRRSNAGLLMLNGEEETKIGENTLRWIVEHGRADEQTFNANGISLSRPLIQKGPLYQKPHKHSVFSKYYVVLISGFIVLFHCFHRSTTGFAKEVLEYAHYVTIPIDDCYLYSGTTTELDLLQRDRTFDEINYGSHALPRVYGDGWRSVEDESSRCFTLWFGTRRALSSNRLQKKGNEKQYTQDYGRQDNNIDPPSAPEADLNNSNVPSNTDKIHFTKKLGVSGKSMVFMARSRQERDLWVMSIYYELERLRRTASTSNSRNQTM | binds | – | binds
